Results are given in words; binding and its absence hold for the method and conditions named. In cells and extracts the contact can be indirect. Some binding calls cover weakened binding; strength is not graded here.
Legend:
Assay in all cases: co-IP
[1] = molecular target: LOXL2-FLAG (lysyl oxidase-like 2, wild type, from pcDNA3-hLOXL2wt-Flag) (human) (UniProt Q9Y4K0)
[2] = molecular target: DNA damage-binding protein 1 (DDB1), endogenous (human (endogenous in MDA-MB-231)) (UniProt Q16531)
[3] = molecular target: DNA damage-binding protein 1 (DDB1), endogenous (human (endogenous in MDA-MB-231)), Q16531; conditions: remark: other sources report otherwise

By UniProt entry, the sequences of proteins in these tests, tags left out. Residues count along the entry.
UniProt Q9Y4K0, residues 26-774: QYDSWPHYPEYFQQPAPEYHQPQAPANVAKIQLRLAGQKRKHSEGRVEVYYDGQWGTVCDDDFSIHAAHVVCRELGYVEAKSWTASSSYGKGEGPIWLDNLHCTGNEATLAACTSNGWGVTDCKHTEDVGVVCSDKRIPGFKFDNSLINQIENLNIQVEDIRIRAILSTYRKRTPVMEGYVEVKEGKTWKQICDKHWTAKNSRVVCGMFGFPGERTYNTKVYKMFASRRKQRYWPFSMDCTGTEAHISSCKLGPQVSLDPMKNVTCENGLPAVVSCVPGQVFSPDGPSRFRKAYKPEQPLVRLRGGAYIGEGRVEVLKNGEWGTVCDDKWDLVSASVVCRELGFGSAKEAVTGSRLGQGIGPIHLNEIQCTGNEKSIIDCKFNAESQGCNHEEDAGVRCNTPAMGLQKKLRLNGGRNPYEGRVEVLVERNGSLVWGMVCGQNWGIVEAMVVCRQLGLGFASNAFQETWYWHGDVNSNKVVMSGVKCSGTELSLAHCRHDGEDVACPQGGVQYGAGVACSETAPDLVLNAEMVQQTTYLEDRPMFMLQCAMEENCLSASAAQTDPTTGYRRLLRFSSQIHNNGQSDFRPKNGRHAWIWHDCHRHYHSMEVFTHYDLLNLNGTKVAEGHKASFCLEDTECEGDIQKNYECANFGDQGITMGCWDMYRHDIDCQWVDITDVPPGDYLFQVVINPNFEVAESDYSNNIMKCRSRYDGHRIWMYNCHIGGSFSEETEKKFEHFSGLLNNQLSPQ
UniProt Q16531: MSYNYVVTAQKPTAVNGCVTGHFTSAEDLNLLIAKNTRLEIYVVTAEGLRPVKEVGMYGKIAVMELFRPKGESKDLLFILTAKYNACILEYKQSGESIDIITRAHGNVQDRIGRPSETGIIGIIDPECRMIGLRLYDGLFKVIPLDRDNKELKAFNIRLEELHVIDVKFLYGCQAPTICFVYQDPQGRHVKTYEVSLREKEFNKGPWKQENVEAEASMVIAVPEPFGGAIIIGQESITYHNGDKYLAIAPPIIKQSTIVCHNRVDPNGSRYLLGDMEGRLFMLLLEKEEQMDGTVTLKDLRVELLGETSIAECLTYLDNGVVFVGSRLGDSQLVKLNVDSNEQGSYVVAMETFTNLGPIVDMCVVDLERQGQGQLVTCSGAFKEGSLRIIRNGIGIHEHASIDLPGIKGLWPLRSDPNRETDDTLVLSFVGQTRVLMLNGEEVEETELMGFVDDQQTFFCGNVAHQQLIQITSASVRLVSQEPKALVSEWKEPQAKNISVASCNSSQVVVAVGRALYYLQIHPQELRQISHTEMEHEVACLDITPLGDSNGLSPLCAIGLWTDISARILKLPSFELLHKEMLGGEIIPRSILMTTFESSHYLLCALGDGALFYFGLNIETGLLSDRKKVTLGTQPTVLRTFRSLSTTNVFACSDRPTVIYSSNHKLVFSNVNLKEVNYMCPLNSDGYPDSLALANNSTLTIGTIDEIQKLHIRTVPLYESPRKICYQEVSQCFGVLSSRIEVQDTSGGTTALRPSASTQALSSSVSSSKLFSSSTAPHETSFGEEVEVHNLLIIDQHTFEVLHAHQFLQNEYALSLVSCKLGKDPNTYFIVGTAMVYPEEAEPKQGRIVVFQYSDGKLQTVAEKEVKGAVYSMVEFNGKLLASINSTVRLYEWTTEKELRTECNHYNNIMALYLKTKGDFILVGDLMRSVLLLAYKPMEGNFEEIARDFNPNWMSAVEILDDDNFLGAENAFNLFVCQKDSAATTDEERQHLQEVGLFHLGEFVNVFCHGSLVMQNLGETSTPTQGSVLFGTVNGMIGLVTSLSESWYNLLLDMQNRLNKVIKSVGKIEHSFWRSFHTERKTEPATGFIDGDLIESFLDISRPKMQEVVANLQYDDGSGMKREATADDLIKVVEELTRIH
UniProt Q9NPF5: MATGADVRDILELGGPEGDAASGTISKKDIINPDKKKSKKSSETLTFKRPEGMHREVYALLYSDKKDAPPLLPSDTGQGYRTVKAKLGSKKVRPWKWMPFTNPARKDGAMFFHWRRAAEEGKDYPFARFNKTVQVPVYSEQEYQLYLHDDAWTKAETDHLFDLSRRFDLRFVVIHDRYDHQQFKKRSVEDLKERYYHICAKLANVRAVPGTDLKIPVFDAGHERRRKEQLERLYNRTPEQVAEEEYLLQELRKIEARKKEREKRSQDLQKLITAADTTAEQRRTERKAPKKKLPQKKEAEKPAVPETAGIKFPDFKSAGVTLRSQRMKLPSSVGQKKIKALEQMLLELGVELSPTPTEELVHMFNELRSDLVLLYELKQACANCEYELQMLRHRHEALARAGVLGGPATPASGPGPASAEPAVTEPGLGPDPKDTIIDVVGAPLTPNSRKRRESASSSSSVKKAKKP
UniProt Q13620: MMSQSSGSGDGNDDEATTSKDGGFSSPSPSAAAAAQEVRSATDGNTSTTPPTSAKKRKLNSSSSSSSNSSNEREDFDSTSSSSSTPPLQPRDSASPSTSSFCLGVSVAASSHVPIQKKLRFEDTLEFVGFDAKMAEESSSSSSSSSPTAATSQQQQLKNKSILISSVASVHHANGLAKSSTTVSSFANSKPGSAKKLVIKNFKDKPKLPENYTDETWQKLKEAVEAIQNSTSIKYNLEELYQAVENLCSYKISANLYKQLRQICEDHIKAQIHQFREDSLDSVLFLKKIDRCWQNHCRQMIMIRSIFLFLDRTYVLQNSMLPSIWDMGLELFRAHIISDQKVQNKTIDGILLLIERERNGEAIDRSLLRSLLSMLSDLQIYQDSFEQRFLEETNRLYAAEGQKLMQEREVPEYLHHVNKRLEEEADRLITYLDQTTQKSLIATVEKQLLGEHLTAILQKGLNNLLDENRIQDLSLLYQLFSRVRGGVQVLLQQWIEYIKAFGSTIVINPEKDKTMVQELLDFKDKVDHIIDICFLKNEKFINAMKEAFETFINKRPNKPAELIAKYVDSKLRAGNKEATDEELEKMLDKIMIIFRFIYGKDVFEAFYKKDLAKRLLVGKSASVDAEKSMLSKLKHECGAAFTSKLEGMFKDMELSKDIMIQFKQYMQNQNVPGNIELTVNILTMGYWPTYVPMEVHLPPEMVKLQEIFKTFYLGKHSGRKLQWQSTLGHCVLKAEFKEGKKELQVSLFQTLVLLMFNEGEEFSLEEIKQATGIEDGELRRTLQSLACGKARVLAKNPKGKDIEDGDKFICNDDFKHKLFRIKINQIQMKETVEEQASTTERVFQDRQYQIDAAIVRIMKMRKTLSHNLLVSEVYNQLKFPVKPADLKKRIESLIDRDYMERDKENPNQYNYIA
UniProt O96019: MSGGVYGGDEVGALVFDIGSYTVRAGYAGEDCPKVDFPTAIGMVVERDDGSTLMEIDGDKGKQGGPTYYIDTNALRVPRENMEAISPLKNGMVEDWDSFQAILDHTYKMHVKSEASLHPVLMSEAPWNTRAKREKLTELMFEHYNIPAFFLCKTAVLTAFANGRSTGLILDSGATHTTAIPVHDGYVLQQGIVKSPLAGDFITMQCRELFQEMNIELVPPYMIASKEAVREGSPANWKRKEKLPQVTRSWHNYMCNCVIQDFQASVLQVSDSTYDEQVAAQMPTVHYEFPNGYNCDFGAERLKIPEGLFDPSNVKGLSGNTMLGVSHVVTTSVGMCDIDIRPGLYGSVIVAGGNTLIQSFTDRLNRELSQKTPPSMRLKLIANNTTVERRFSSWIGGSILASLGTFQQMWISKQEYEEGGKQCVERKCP
UniProt Q9Y265: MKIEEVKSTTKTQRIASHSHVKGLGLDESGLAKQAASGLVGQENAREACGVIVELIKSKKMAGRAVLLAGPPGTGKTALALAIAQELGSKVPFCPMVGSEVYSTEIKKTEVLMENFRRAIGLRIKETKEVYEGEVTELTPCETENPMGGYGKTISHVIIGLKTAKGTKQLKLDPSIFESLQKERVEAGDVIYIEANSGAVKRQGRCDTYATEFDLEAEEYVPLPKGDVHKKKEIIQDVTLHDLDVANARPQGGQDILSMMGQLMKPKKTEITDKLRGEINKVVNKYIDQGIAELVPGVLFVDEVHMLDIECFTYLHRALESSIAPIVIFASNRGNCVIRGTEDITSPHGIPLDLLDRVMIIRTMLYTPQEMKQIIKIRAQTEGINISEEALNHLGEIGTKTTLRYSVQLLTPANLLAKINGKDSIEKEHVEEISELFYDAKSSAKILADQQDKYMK

Molecule | binding [1] | also measured
DMAP1 (from UniProt Q9NPF5 1-467) | binds | 
CUL4B (from UniProt Q13620 1-913) |  | binding [2]: binds
RING1B, Q99496 1-336 (protein) MSQAVQTNGTQPLSKTWELSLYELQRTPQEAITDGLEIVVSPRSLHSELMCPICLDMLKNTMTTKECLHRFCADCIITALRSGNKECPTCRKKLVSKRSLRPDPNFDALISKIYPSRDEYEAHQERVLARINKHNNQQALSHSIEEGLKIQAMNRLQRGKKQQIENGSGAEDNGDSSHCSNASTHSNQEAGPSNKRTKTSDDSGLELDNNNAAMAIDPVMDGASEIELVFRPHPTLMEKDDSAQTRYIKTSGNATVDHLSKYLAVRLALEELRSKGESNQMNLDTASEKQYTIYIATASGQFTVLNGSFSLELVSEKYWKVNKPMELYYAPTKEHK |  | binding [3]: binds

The next lines start with results.

binding [1] | Molecule | also measured
binds | BAF53 (from UniProt O96019 1-429) | 
binds | RUVBL1 (from UniProt Q9Y265 1-456) | 
